From article PMC3558502, “Acaricide, Fungicide and Drug Interactions in Honey Bees (Apis mellifera)” (PLoS ONE, 2013)
Marks after values point to notes of the source that are not given here.

What was measured:
honey bees = conditions: reported concentrations of acaricides in bees; cited from earlier work
[1] = test system: honey bees (Apis mellifera); assay: Lethal dose bioassay: antimicrobial drugs fed in sucrose syrup, then topical acaricide dose series, 2010
[2] = oral pre-treatment: oxytetracycline

SMILES	reported exposure, max. (honey bees)	reported mean exposure (honey bees)	intercept ± SE of log-probit dose-response line ([1]; oral pre-treatment: control)	slope ± SE of log-probit dose-response line ([1]; oral pre-treatment: control)	intercept ± SE of log-probit dose-response line ([1]; oral pre-treatment: fumagillin)	slope ± SE of log-probit dose-response line ([1]; oral pre-treatment: fumagillin)	intercept ± SE of log-probit dose-response line [1, 2]	slope ± SE of log-probit dose-response line [1, 2]	intercept ± SE of log-probit dose-response line ([1]; oral pre-treatment: tylosin)	slope ± SE of log-probit dose-response line ([1]; oral pre-treatment: tylosin)
CCOP(=S)(OCC)Oc1ccc2c(C)c(Cl)c(=O)oc2c1 [coumaphos]	3.20^b µg/bee	0.09^a µg/bee								
Cc1ccc(/N=C/N(C)/C=N/c2ccc(C)cc2C)c(C)c1 [amitraz]	9.04^a µg/bee	0.15^a µg/bee	-2.21 ± 0.33	2.99 ± 0.38	-2.21 ± 0.34	3.75 ± 0.52	-2.38 ± 0.30	4.23 ± 0.54	-2.16 ± 0.22	3.29 ± 0.29
CC(C)[C@@H](Nc1ccc(C(F)(F)F)cc1Cl)C(=O)OC(C#N)c1cccc(Oc2ccccc2)c1 (stereo partly shown) [tau-fluvalinate]	0.70^a µg/bee	0.04^a µg/bee	-1.91 ± 0.13	1.98 ± 0.14	-1.36 ± 0.16	1.99 ± 0.22	-2.48 ± 0.19	2.68 ± 0.21	-2.37 ± 0.32	2.32 ± 0.34
